The target of data set [1] is full-length human cGAS (hcGAS-FL) (human) (UniProt Q8N884). Briefly: in vitro phase separation (fluorescence microscopy). To be noted: 20 mM Tris-HCl pH 7.5, 300 mM NaCl, condensation read-out; Phase separation: 20 mM Tris-HCl pH 7.5, 150 mM NaCl (45-bp ISD, phase diagrams) or 300 mM NaCl (100-bp DNA), 1 mg/ml BSA; recombinant protein; residues 1-522; label: Cy3 on sense strand (2% labeled).

Protein sequences, listed by entry. Tags and fused reporters are not part of them.
UniProt Q8N884, whole entry: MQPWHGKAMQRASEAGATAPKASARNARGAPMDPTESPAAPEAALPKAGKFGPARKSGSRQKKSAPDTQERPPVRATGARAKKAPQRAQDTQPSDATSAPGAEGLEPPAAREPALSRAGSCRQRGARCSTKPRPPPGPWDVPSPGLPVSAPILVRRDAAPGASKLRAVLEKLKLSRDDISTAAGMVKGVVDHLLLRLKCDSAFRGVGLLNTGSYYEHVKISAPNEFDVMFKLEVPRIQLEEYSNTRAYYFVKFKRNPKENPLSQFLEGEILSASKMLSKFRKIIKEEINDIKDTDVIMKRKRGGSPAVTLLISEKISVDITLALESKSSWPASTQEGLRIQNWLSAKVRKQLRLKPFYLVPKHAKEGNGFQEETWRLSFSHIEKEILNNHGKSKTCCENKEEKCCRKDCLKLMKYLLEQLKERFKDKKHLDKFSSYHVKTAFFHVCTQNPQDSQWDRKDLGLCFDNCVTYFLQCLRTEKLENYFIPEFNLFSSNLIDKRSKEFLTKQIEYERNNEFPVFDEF

Data set [2] shares this target. Briefly: in vitro phase separation (confocal microscopy). To be noted: physiological buffer with or without 200 uM Zn2+, Zn2+ promotes condensation; Phase separation: 20 mM Tris-HCl pH 7.5, 150 mM NaCl (45-bp ISD, phase diagrams) or 300 mM NaCl (100-bp DNA), 1 mg/ml BSA; recombinant protein; residues 1-522; label: Cy3 on sense strand.

From paper PMC9417938 come the findings set out here.

The exact form of at least one protein or probe is not confirmed. At least one verdict rests on a figure or table, not on a statement of the authors.

In the case of “ACATCTAGTACATGTCTAGTCAGTATCTAGTGATTATCTAGACATACATCTAGTACATGTCTAGTCAGTATCTAGTGATTATCTAGACATGGACTCATCC (double strand) [100-bp Cy3-DNA]”, in data set [1], the binding result is given as “binds”.

In the case of “TACAGATCTACTAGTGATCTATGACTGATCTGTACATGATCTACA (double strand) [45-bp Cy3-ISD]”, the binding result in data set [2] is “binds”.
